Measurements reported in PubChem BioAssay AID1259424 (University of Nebraska Medical Center, 2018)
Screen: 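Find knockdowns that reproduce the expression shifts seen after KSR1 loss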 (primary screen). Cell system: human HCT116 colon cancer cells. Reagent: siRNA pool against human genes, 50 nM. Detection: 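Log2 levels of six mRNAs (branched-DNA multiplex), adjusted by two reference genes and the non-targeting median, then scored against the average KSR1 knockdown pattern as Pearson r and euclidean distance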. Reading the numbers: mean correlation with KSR1 profile: higher = expression change more like KSR1 knockdown; mean distance from KSR1 profile: higher = expression change less like KSR1 knockdown.
Here is one part, drawn at random, of about 14,000 reagents tested. 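Higher correlation or smaller distance means closer resemblance to KSR1 loss; control wells, including KSR1 knockdowns, recur on many plates.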 Not all columns of the deposit are shown. Reagent sequences are not shown. Not stated in the record: the time to read-out.

no.	gene	mean correlation with KSR1 profile	mean distance from KSR1 profile
1	MAP3K19	0.581	2.22
2	KLHL8	0.498	6.03
3	AACS	0.11	1.44
4	CD248	-0.293	2.54
5	GPR75	0.87	1.45
6	TAFAZZIN	0.69	2.72
7	EGR4	0.787	0.757
8	NINL	0.163	1.4
9	STX10	-0.381	1.66
10	NDUFA5	0.26	1.4
11	SOX17	0.654	0.543
12	SMARCD3	0.292	1.75
13	PDE1B	0.55	2.11
14	MTCP1	-0.576	2.78
15	IER3	0.0311	3.24
16	RSAD1	-0.368	2.86
17	KRT83	-0.133	1.61
18	FKBPL	0.192	2.42
19	FBN1	0.0723	1.32
20	COPS5	-0.528	4.27
21	ARHGEF38	-0.0956	2.57
22	FGR	0.364	3.94
23	PSMA6	-0.0729	5.01
24	BRI3	0.0486	2.79
25	ZNF443	0.64	0.837
26	NECTIN3	0.353	0.965
27	NEMF	-0.269	1.63
28	MYCBP	-0.651	2.57
29	SIGLEC12	0.123	2.09
30	PRAM1	0.62	1.86
31	HES4	0.318	3.36
32	MIA	-0.0576	1.25
33	OLAH	0.503	3.38
34	RTN3	-0.471	2.75
35	POLE2	0.644	2.15
36	ACTR10	0.858	1.31
37	CCL4	0.28	2.03
38	SDR39U1	-0.701	1.83
39	PRDX5	0.0125	1.64
40	TRAPPC13	-0.0832	2.16
41	ARHGAP44	-0.526	2.93
42	MED25	0.0592	2.32
43	RGS12	0.948	3.59
44	CCDC62	-0.0169	2.54
45	DUSP16	-0.28	1.82
46	DPYD	0.0777	1.7
47	PAGE4	-0.331	2.55
48	ADAMTS4	0.504	1.24
49	MPL	-0.617	2.61
50	CACNG4	-0.209	0.951

A stretch taken from the entries so far:
no.	gene	mean correlation with KSR1 profile	mean distance from KSR1 profile
32	MIA	-0.0576	1.25
33	OLAH	0.503	3.38
34	RTN3	-0.471	2.75
35	POLE2	0.644	2.15
